# Structures can show the parent of a compound that is named as a salt. ± gives the standard deviation of the averaged measurements. The list shows a part of the results. Many values rest on one well or one pass, so single values are uncertain.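 Labelled rat cortical synaptosomes were engulfed by primary human fetal astrocytes. Engulfment equaled a red/green ratio, corrected for calcein live-cell signal and normalized to the plate median. Compounds were toxic when calcein dropped over 30%, and reduced phagocytosis when below 70% of the median above 5 µM.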
# How the values were obtained:
# Human fetal astrocytes [1] = assay: loss of total cells relative to no-compound high-control median (toxicity); higher = more toxic (fewer cells); conditions: 24 h
# Human fetal astrocytes [2] = assay: synaptosome phagocytosis (pHrodo/calcein intensity ratio) relative to plate median of data wells; higher = more phagocytosis; conditions: 24 h
SMILES,loss of total cells (Human fetal astrocytes [1]; 1.39 µM) [%],loss of total cells (Human fetal astrocytes [1]; 2.78 µM) [%],loss of total cells (Human fetal astrocytes [1]; 5.56 µM) [%],loss of total cells (Human fetal astrocytes [1]; 11.11 µM) [%],loss of total cells (Human fetal astrocytes [1]; 22.22 µM) [%],synaptosome phagocytosis (Human fetal astrocytes [2]; 1.39 µM) [%],synaptosome phagocytosis (Human fetal astrocytes [2]; 2.78 µM) [%],synaptosome phagocytosis (Human fetal astrocytes [2]; 5.56 µM) [%],synaptosome phagocytosis (Human fetal astrocytes [2]; 11.11 µM) [%],synaptosome phagocytosis (Human fetal astrocytes [2]; 22.22 µM) [%]
CC(C)(C)NCC(O)c1ccc(O)c(CO)c1 (stereo not given) [Albuterol hemisulfate],-5.9,-12.9,-10.7,-13.4,-50.2,91.5,96,94.1,109,110
CNc1ncnc2c1ncn2[C@@H]1O[C@H](CO)[C@@H](O)[C@H]1O [N6-Methyladenosine],14.7,4.1,-19.2,16.2,29.9,121,119,109,137,112
CC[C@H](C)C(=O)O[C@H]1CCC=C2C=C[C@H](C)[C@H](CC[C@@H]3C[C@@H](O)CC(=O)O3)[C@H]21 [Mevastatin],-13.7,1.4,17.4,21.9,16.8,133,87.2,115,127,144
CC(=O)SCC[N+](C)(C)C [Acetylthiocholine chloride],-11,-5.7,-16.1,-21.1,-2.6,95,91.2,106,112,105
Nc1nc(SCc2ccc([N+](=O)[O-])cc2)c2ncn([C@@H]3O[C@H](CO)[C@H](O)C3O)c2n1 (stereo partly drawn) [S-(4-Nitrobenzyl)-6-thioguanosine],-1.5,-4.2,3.2,-7.6,9.4,120,108,91.5,100,121
C[C@H]1O[C@@H](n2cc(F)c(=O)[nH]c2=O)[C@H](O)[C@@H]1O [5-fluoro-5'-deoxyuridine],2.1,-12.8,-4.1,4.9,3.2,104,122,102,115,143
CNCCCC12CCC(c3ccccc31)c1ccccc12 [Maprotiline hydrochloride],-4.3,23.1,13.6,22.9,11.2,91.3,121,123,72.3,83
[Cl-].[Li+] [Lithium Chloride],11.3,2.6,-6.6,0.4,10.4,98.5,86.9,111,134,113
C=Cc1c(C)c2cc3[nH]c(cc4nc(cc5nc(cc1[nH]2)C(C)=C5CCC(=O)O)C(CCC(=O)O)=C4C)c(C)c3C=C [Protoporphyrin IX disodium],0.3,-21.3,10.7,5.7,1.6,114,102,115,69.8,92.2
CCNC(=O)N1CCN(CCCC(c2ccc(F)cc2)c2ccc(F)cc2)CC1 [Amperozide hydrochloride],-18,-15.6,-4.1,-4.9,1.1,75.1,83,99.1,99.2,94.3
CCCCCCCCCCCCCCCC(=O)NCC(COP(=O)([O-])OCC[N+](C)(C)C)OCC (racemic) [rac-2-Ethoxy-3-hexadecanamido-1-propylphosphocholine],-15.5,-17.9,-4.9,13,32.8,69.8,90,79.7,57.9,66.8
C[C@](N)(Cc1ccc(O)cc1)C(=O)O [L-alpha-Methyl-p-tyrosine],-15.6,13.1,11.7,1.9,-6.5,138,112,94.6,125,143
CC(C(=O)O)c1ccc(CC2CCCC2=O)cc1 (stereo not given) [loxoprofen],-17.5,-6.8,11.7,27.6,32.7,86.6,91.9,110,116,111
Cc1cccc(C#Cc2ccccc2)n1 [6-Methyl-2-(phenylethynyl)pyridine hydrochloride],-9,1.4,2.3,12.4,15,108,107,59.7,87.7,112
CN[C@H](CC(C)C)C(=O)N[C@H]1C(=O)N[C@@H](CC(N)=O)C(=O)N[C@H]2C(=O)N[C@H]3C(=O)N[C@H](C(=O)N[C@H](C(=O)O)c4cc(O)cc(O)c4-c4cc3ccc4O)[C@H](O)c3ccc(c(Cl)c3)Oc3cc2cc(c3O[C@@H]2O[C@H](CO)[C@@H](O)[C@H](O)[C@H]2O[C@H]2C[C@](C)(N)[C@H](O)[C@H](C)O2)Oc2ccc(cc2Cl)[C@H]1O [Vancomycin hydrochloride from Streptomyces orientalis],-24.5,-18.3,-11.2,-5,-58.4,111,91.2,88.3,101,97.5
NC[C@@H]1O[C@H](O[C@H]2[C@@H](O)[C@H](O[C@@H]3[C@@H](O)[C@H](N)C[C@H](N)[C@H]3O[C@H]3O[C@H](CO)[C@@H](O)[C@H](O)[C@H]3N)O[C@@H]2CO)[C@H](N)[C@@H](O)[C@@H]1O [Paromomycin sulfate],2.2,-25.4,-2.2,1.9,-1.6,72.2,120,99.6,83.8,106
Nc1nc2c(nc(Br)n2C2OC3COP(=O)(O)O[C@@H]3C2O)c(=O)[nH]1 (stereo not given in full) [8-Bromo-cGMP sodium],-24.6,-14.7,-7.8,-26.5,11.7,101,79.6,103,116,107
COC(=O)[C@@H]1[C@H]2C[C@H]3c4[nH]c5ccccc5c4CCN3C[C@@H]2CC[C@@H]1O [Yohimbine hydrochloride],-18.3,-24.9,4.5,-20.3,-30.5,87.6,104,71.7,102,116
"Cc1ccc(OCC(O)C(C)NC(C)C)c2c1CCC2 (stereo not given) [ICI 118,551 hydrochloride]",5.2,13.1,-9.9,13.3,3.7,106,113,91.7,102,71.9

# Full records, looked up by structure. Values in the order: loss of total cells (Human fetal astrocytes [1]; 1.39 µM) [%]	loss of total cells (Human fetal astrocytes [1]; 2.78 µM) [%]	loss of total cells (Human fetal astrocytes [1]; 5.56 µM) [%]	loss of total cells (Human fetal astrocytes [1]; 11.11 µM) [%]	loss of total cells (Human fetal astrocytes [1]; 22.22 µM) [%]	synaptosome phagocytosis (Human fetal astrocytes [2]; 1.39 µM) [%]	synaptosome phagocytosis (Human fetal astrocytes [2]; 2.78 µM) [%]	synaptosome phagocytosis (Human fetal astrocytes [2]; 5.56 µM) [%]	synaptosome phagocytosis (Human fetal astrocytes [2]; 11.11 µM) [%]	synaptosome phagocytosis (Human fetal astrocytes [2]; 22.22 µM) [%]
# `CC(C(=O)O)c1ccc(CC2CCCC2=O)cc1` (stereo not given) [loxoprofen] is listed with -17.5	-6.8	11.7	27.6	32.7	86.6	91.9	110	116	111
# `[Cl-].[Li+]` [Lithium Chloride] is listed with 11.3	2.6	-6.6	0.4	10.4	98.5	86.9	111	134	113
# `C=Cc1c(C)c2cc3[nH]c(cc4nc(cc5nc(cc1[nH]2)C(C)=C5CCC(=O)O)C(CCC(=O)O)=C4C)c(C)c3C=C` [Protoporphyrin IX disodium] is listed with 0.3	-21.3	10.7	5.7	1.6	114	102	115	69.8	92.2

# The list continues.

SMILES,loss of total cells (Human fetal astrocytes [1]; 1.39 µM) [%],loss of total cells (Human fetal astrocytes [1]; 2.78 µM) [%],loss of total cells (Human fetal astrocytes [1]; 5.56 µM) [%],loss of total cells (Human fetal astrocytes [1]; 11.11 µM) [%],loss of total cells (Human fetal astrocytes [1]; 22.22 µM) [%],synaptosome phagocytosis (Human fetal astrocytes [2]; 1.39 µM) [%],synaptosome phagocytosis (Human fetal astrocytes [2]; 2.78 µM) [%],synaptosome phagocytosis (Human fetal astrocytes [2]; 5.56 µM) [%],synaptosome phagocytosis (Human fetal astrocytes [2]; 11.11 µM) [%],synaptosome phagocytosis (Human fetal astrocytes [2]; 22.22 µM) [%]
NCC(O)C1CCCCCCC1 (stereo not given) [2-Cyclooctyl-2-hydroxyethylamine hydrochloride],5.4,-11.1,-4.9,-8.5,2.4,104,94.3,113,108,121
CC(C)C[C@H](NC(=O)[C@H](O)[C@H](N)Cc1ccccc1)C(=O)O [Epibestatin hydrochloride],-20.5,-30.8,-11.5,-10.3,1.6,77.7,85.1,93.9,104,128
CCCN(CC1CC1)c1nc(C)nc(Nc2c(Cl)cc(Cl)cc2Cl)c1Cl,-4.6,-3.4,-2.5,-22,-13.6,92.7,81.9,85.9,98.7,87
CC1(NC(=O)CBr)CCC(C(C)(C)NCC(O)COc2cccc3[nH]ccc23)CC1 (racemic) [(±)-Pindobind],-4.7,-20.1,-6.7,3.4,-26.3,91.9,83,91.5,98.9,68.8
O=c1[nH]c2ccccc2n1CCCN1CCN(C(c2ccccc2)c2ccccc2)CC1 [Oxatomide],-36.5,19.5,17.4,13.3,24.3,82.4,110,143,98.3,87.9
"c1ccc(-c2ccccn2)nc1 [2,2'-Bipyridyl]",6.3,-4.3,-0.8,4,-0.8,109,124,71.7,92.3,119
O=C(O)C=C1CCCc2ccccc2C1O (stereo not given),-16.6,-2.3,0.5,17.1,17.8,90.1,89.5,137,102,127
C[N+](C)(C)CCC(=O)c1cccc2ccccc12 [2-(alpha-Naphthoyl)ethyltrimethylammonium iodide],-6.2,-7.7,3.3,22.9,62.6,121,107,64.5,73.2,34.3
Cc1ccccc1/C=C/C1=NCCN1 [Metrazoline oxalate],-11.8,-10.4,4.2,-3.8,-0.9,108,98.1,92.1,101,84
NCCC[C@](N)(C(=O)O)C(F)F (racemic) [DL-alpha-Difluoromethylornithine hydrochloride],-16.3,-1.7,-4.9,-9.4,-17.6,86.2,117,92.5,86.8,93.4
NC(CCCP(=O)(O)O)C(=O)O (racemic) [(±)-2-Amino-5-phosphonopentanoic acid],-10.6,-12.3,-11.5,-7.6,4.1,82,84,97,120,103
CCN(CC)CCCCCCCCOC(=O)c1cc(OC)c(OC)c(OC)c1 [TMB-8 hydrochloride],4.4,-14.1,-27.2,4,17.7,121,110,94.5,113,102
COc1cc2c(CCNC(C)=O)c[nH]c2cc1O [6-Hydroxymelatonin],8.8,-24.8,-4.9,-21.1,6.4,105,111,124,118,117
Cc1ccccc1N1CCN(S(=O)(=O)C[C@]23CC[C@H](CC2NC(=O)[C@@H](N)CCS(C)(=O)=O)C3(C)C)CC1 (stereo not given in full),-8.1,3.2,-0.5,6.7,26.2,103,88.7,104,132,85.2
NS(=O)(=O)c1cccc2c1c([N+](=O)[O-])cc1nc(O)c(O)nc12 [NBQX disodium],-7.1,6.8,17.4,8.6,6.5,107,83.9,104,105,96
CCOC(=O)Nc1ccc(NCc2ccc(F)cc2)nc1N [Flupirtine maleate],13.8,-6,0,-13,-2.4,125,112,101,113,150
CCCCN1CCC(n2c(=O)[nH]c3ccccc32)CC1 [NS 521 oxalate],-17.5,-11.3,-3.3,-7.6,13.1,92.1,54.7,115,86.5,126
OC[C@H]1NC[C@H](O)[C@@H](O)[C@@H]1O [1-Deoxynojirimycin hydrochloride],-3.6 ± 12,-4.15 ± 2.6,14.8 ± 22,17.6 ± 7.4,6 ± 7.3,104 ± 19,129 ± 16,115 ± 16,112 ± 11,125 ± 18
